Our source for the IC50 values is ChEMBL document CHEMBL1133758, “Docking-based development of purine-like inhibitors of cyclin-dependent kinase-2” (J Med Chem, 2000).

Protein sequences, listed by entry. Tags and fused reporters are not part of them.
UniProt P06493, whole entry: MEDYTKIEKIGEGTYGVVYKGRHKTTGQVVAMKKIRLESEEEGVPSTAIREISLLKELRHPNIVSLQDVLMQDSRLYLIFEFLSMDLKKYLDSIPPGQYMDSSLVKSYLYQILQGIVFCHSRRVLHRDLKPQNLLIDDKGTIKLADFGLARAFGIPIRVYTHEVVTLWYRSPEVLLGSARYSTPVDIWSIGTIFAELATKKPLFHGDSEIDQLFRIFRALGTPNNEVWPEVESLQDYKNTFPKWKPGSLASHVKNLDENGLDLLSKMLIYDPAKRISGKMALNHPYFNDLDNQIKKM

This test has as its target Cyclin-dependent kinase 1 (Homo sapiens, UniProt P06493). In words: Inhibition of Cyclin-dependent kinase 1.

As to `CC(C)n1cnc2c(NCc3ccccc3)nc(NCCCO)nc21` [BOHEMINE], it took 2.5 µM to reach half-maximal inhibition (IC50).
